The text below walks through data of patent US12551536B2, “Semaglutide in medical therapy” (Novo Nordisk A/S, priority 2017, dated 2026).

This series is described as follows: 52-week clinical trial of once-daily semaglutide in obese subjects without diabetes mellitus: change in body weight. Format: in vivo, human. The note with it: calculated as (3.0/0.08)/(3.0/0.28). How it is done:
This trial was designed as a 52-week, randomised, double-blind, placebo-controlled, sixteen-armed, parallel group, multi-centre, multinational trial comparing once-daily subcutaneous administration of semaglutide in five different doses (ranging from 0.05 mg/day to 0.4 mg/day) with placebo in obese subjects without diabetes mellitus. […] The trial was double-blinded between active and placebo treatment. To ensure a sufficiently large sample of men, no more than 70% of the trial population was allowed to be women and the randomisation was stratified according to sex. Subjects were randomised in a balanced manner (6:1 active:placebo).
The primary endpoint was relative change from baseline in body weight (%) at 52 weeks. Key secondary endpoints included proportion of subjects with weight loss of ≥5% or ≥10% of baseline body weight at 52 weeks as well as change in body weight from baseline to 52 weeks. […] All medical problems either observed by the site staff or the subject was reported as an adverse event and evaluated for severity and causality by the investigator. […]
Statistical analyses of effect endpoints: The primary analysis was based on a ‘jump-to-reference’ multiple imputation approach (J2R-MI). […] The primary endpoint was calculated in each complete data set and analysed using an analysis of covariance (ANCOVA) model. […]

Consider “N^6.26-{18-[N-(17-carboxyheptadecanoyl)-L-γ-glutamyl]-10-oxo-3,6,12,15-tetraoxa-9,18-diazaoctadecanoyl}-[8-(2-amino-2-propanoic acid),34-L-arginine]human glucagon-like peptide 1(7-37) [Sema]”, for which the “Greater body weight reduction at the same level of gastrointestinal adverse events, semaglutide vs liraglutide” value is given as “around 3 times”.
